This is one part of the list. Many values rest on one well or one pass, so single values are uncertain.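 The apoptosis fraction was the count of cleaved-PARP antibody-stained nuclei relative to all DNA-stained nuclei, imaged in 1,536-well plates. Screening doses were set so most cells survived, and baseline and induced cleaved-PARP levels vary greatly across cell lines.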

Among the test systems are 501Mel; A101D; A2058; C32; CBRC008; CBRC014; CBRC016; CBRC017; COLO792; COLO800; COLO829; G361; IPC-298; IST-MEL1; LB2518-MEL; LOXIMVI.
Assay in all cases: cleaved PARP positive nuclei fraction relative to DMSO control; melanoma cells; higher = more apoptosis
Holding throughout (settings): library dose: low library concentration; 72 h

`CN(c1ncccc1CNc1nc(Nc2ccc3c(c2)CC(=O)N3)ncc1C(F)(F)F)S(C)(=O)=O` + CCc1ccc(CCOc2ccc(CC3SC(=O)NC3=O)cc2)nc1 [pioglitazone] (first compound 0.08 µM, partner dose 2 µM): the “cleaved PARP positive nuclei fraction” value came out at 80.3% with 501Mel; 17.9% with A101D; 109% with A2058; 341% with C32; 97.7% in the test on CBRC008 (line from a melanoma biopsy); 136% in the test on CBRC014 (line from a melanoma biopsy). In addition, the “cleaved PARP positive nuclei fraction” value with CBRC016 was 51.3%; in the test on CBRC017 (line from a melanoma biopsy), 104%; in the test on COLO792, 117%; with COLO800 it was 76.3%; in the test with COLO829 it was 45.6%; with G361, 110%. Further, the “cleaved PARP positive nuclei fraction” value was 125% in the test with IPC-298, 55% in the test with IST-MEL1, 71% in the test on LB2518-MEL and 109% in the test on LOXIMVI.
For `NC(=O)c1ccc(N(C(N)=O)c2c(F)cccc2F)nc1-c1ccc(F)cc1F` + O=C(Nc1ccccc1)c1cc([N+](=O)[O-])ccc1Cl [GW9662] (first compound 0.4 µM, partner dose 2 µM), the “cleaved PARP positive nuclei fraction” value is 187% in the test with 501Mel; 49.5% with A101D; 35.9% in the test with A2058; 121% in the test on C32; 56.9% with CBRC008; 89.5% in the test with CBRC014. The “cleaved PARP positive nuclei fraction” value is 97.6% in the test on CBRC016 (line from a melanoma biopsy); 111% in the test on CBRC017; 118% with COLO792; 213% in the test on COLO800; 88.3% with COLO829; 154% in the test on G361. The “cleaved PARP positive nuclei fraction” value with IPC-298 was 186%; with IST-MEL1 it was 189%; with LB2518-MEL, 94%; with LOXIMVI, 83%.
For `NC1(c2ccc(-c3nc4ccn5c(=O)[nH]nc5c4cc3-c3ccccc3)cc2)CCC1` + COc1cc(N2CCC(N3CCN(C)CC3)CC2)ccc1Nc1ncc(Cl)c(Nc2ccccc2S(=O)(=O)C(C)C)n1 [NVP-TAE684] (first compound 0.4 µM, partner dose 0.08 µM), the “cleaved PARP positive nuclei fraction” value in the test on 501Mel is 131%; in the test with A101D it was 27.5%; in the test with A2058, 79.3%; in the test on C32, 133%; with CBRC008 it was 271%; in the test with CBRC014, 174%. The “cleaved PARP positive nuclei fraction” value with CBRC016 is 78.3%; in the test with CBRC017, 81.1%; in the test on COLO792, 246%; with COLO800, 49.5%; in the test on COLO829, 186%; with G361, 140%. Moreover, the “cleaved PARP positive nuclei fraction” value was 93.3% in the test with IPC-298, 54.1% in the test with IST-MEL1, 77.7% in the test with LB2518-MEL and 100% with LOXIMVI.
`CCCCCCCCc1ccc(CCC(N)(CO)CO)cc1` [fingolimod] + O=S(=O)(c1ccccc1)N(CC(F)(F)F)c1ccc(C(O)(C(F)(F)F)C(F)(F)F)cc1 [T0901317] (first compound 2 µM, partner dose 1.4 µM): the “cleaved PARP positive nuclei fraction” value stood at 176% with 501Mel; 50% in the test on A101D; 139% with A2058; 78.8% with C32; 177% in the test on CBRC008; 105% in the test on CBRC014. Besides, the “cleaved PARP positive nuclei fraction” value turned out to be 45.4% with CBRC016; 225% with CBRC017; 116% with COLO792; 38.9% in the test with COLO800; 96.3% with COLO829; 135% with G361. Moreover, the “cleaved PARP positive nuclei fraction” value in the test with IPC-298 was found to be 65%; in the test on IST-MEL1, 36.9%; in the test on LB2518-MEL it was 59.8%; in the test on LOXIMVI it was 86.9%.
As to `CS(=O)(=O)c1ccc(C(=O)Nc2ccc(Cl)c(-c3ccccn3)c2)c(Cl)c1` [vismodegib] + O=C1NC(=O)/C(=C/c2ccc(-c3ccc(F)cc3O)o2)S1 [AS252424] (first compound 1 µM, partner dose 1 µM), the “cleaved PARP positive nuclei fraction” value in the test on 501Mel was determined as 116%; in the test with A101D it was 13.1%; with A2058, 40.6%; with C32, 169%; in the test on CBRC008, 106%; with CBRC014, 91.2%. Further, the “cleaved PARP positive nuclei fraction” value with CBRC016 is 39.2%; in the test on CBRC017 it was 99%; with COLO792, 78.7%; in the test with COLO800, 60.6%; in the test on COLO829 it was 115%; in the test on G361, 65.3%. For the same molecule, the “cleaved PARP positive nuclei fraction” value stood at 47.7% in the test with IPC-298, 88.9% in the test with IST-MEL1, 138% with LB2518-MEL and 224% in the test on LOXIMVI.
With `COc1ccc(C2=N[C@@H](c3ccc(Cl)cc3)[C@@H](c3ccc(Cl)cc3)N2C(=O)N2CCNC(=O)C2)c(OC(C)C)c1` [Nutlin-3] + CCc1ccc(CCOc2ccc(CC3SC(=O)NC3=O)cc2)nc1 [pioglitazone] (first compound 0.1 µM, partner dose 2 µM), the “cleaved PARP positive nuclei fraction” value was 178% in the test with 501Mel; 48.7% in the test on A101D; 39.3% in the test with A2058; 289% in the test with C32; 135% in the test on CBRC008; 108% in the test with CBRC014. Further, the “cleaved PARP positive nuclei fraction” value came out at 38.9% in the test with CBRC016; 140% with CBRC017; 30.7% in the test on COLO792; 154% with COLO800; 67.4% in the test on COLO829; 54.1% in the test on G361. The “cleaved PARP positive nuclei fraction” value with IPC-298 was 93.1%; in the test with IST-MEL1, 174%; with LB2518-MEL it was 139%; in the test with LOXIMVI it was 103%.
Turning to `COc1ccc(C2=N[C@@H](c3ccc(Cl)cc3)[C@@H](c3ccc(Cl)cc3)N2C(=O)N2CCNC(=O)C2)c(OC(C)C)c1` [Nutlin-3] + Oc1nc(-c2ccc(C(F)(F)F)cc2)nc2c1CSCC2 [XAV939] (first compound 0.1 µM, partner dose 2 µM), the “cleaved PARP positive nuclei fraction” value came to 86% with 501Mel; 28.4% in the test with A101D; 408% in the test with A2058; 106% in the test on C32; 184% in the test with CBRC008; 109% in the test with CBRC014. The “cleaved PARP positive nuclei fraction” value worked out at 54.6% in the test with CBRC016; 133% in the test on CBRC017; 127% in the test on COLO792; 78.5% in the test with COLO800; 58.5% with COLO829; 294% in the test with G361. The “cleaved PARP positive nuclei fraction” value in the test with IPC-298 is 136%; in the test on IST-MEL1, 99.8%; with LB2518-MEL it was 59.5%; in the test on LOXIMVI, 84.6%.
For the molecule `Cn1sc(=O)n(Cc2ccccc2)c1=O` + O=C(Nc1ccccc1)c1cc([N+](=O)[O-])ccc1Cl [GW9662] (first compound 0.4 µM, partner dose 2 µM), the “cleaved PARP positive nuclei fraction” value with 501Mel worked out at 137%; in the test on A101D it was 32.8%; in the test with A2058 it was 53.5%; in the test with C32 it was 89.1%; with CBRC008, 81.3%; with CBRC014, 85.8%. For the same molecule, the “cleaved PARP positive nuclei fraction” value in the test with CBRC016 turned out to be 127%; with CBRC017, 77.3%; in the test with COLO792, 83.6%; with COLO800, 40.9%; with COLO829, 87.9%; in the test on G361, 85.6%. Besides, the “cleaved PARP positive nuclei fraction” value amounted to 112% in the test on IPC-298, 91.1% in the test on IST-MEL1, 71.7% in the test on LB2518-MEL and 137% with LOXIMVI.
`CC(=O)O[C@@]12CO[C@@H]1C[C@H](O)[C@@]1(C)C(=O)[C@H](O)C3=C(C)[C@@H](OC(=O)[C@H](O)[C@@H](NC(=O)OC(C)(C)C)c4ccccc4)C[C@@](O)([C@@H](OC(=O)c4ccccc4)[C@H]21)C3(C)C` [Docetaxel] + Oc1cc(-c2nc(-c3ccccc3)[nH]c2-c2ccncc2)ccc1Cl [L779450] (first compound 0.0001 µM, partner dose 0.2 µM): the “cleaved PARP positive nuclei fraction” value with 501Mel amounted to 309%; with A101D, 10.5%; in the test on A2058 it was 5080%; with C32, 437%; with CBRC008, 467%; with CBRC014, 175%. Besides, the “cleaved PARP positive nuclei fraction” value in the test on CBRC016 is 67.2%; with CBRC017, 157%; with COLO792, 869%; in the test on COLO800, 270%; with COLO829, 192%; in the test with G361, 668%. In addition, the “cleaved PARP positive nuclei fraction” value in the test on IPC-298 was determined as 584%; in the test with IST-MEL1, 213%; in the test on LB2518-MEL it was 148%; in the test on LOXIMVI, 134%.
